Measurements published in patent US8501991B2, “P53 activating compounds” (University Court of the University of Dundee, priority 2006, dated 2013).
For some assays here: The name of at least one read-out is uncertain. For some assays here: At least one structure is not confirmed: it was looked up by name or label, or the drawing left a doubt.

Columns and labels:
[1] = test system: p53-dependent transcription; experiment: p53-dependent transcription in T22 RGC-ΔFos-lacZ cells (primary screen, beta-galactosidase/CPRG); conditions: rank order in cell based assay; '=' marks a tie
p53 = experiment: Reversibility of p53 activation; assay type: cell-based

Row | Compound | P53 activation (order of ability of analogues to activate p53) [1] | reversibility of p53 activation (p53)
1 | CC(C)(C)c1ccc(C(=O)NC(=S)Nc2ccc(NC(=O)CCCCN3CCOCC3)cc2)cc1.Cl [Compound 1, 5-Morpholin-4-yl-pentanoic acid {4-[3-(4-tert-butyl-benzoyl)-thioureido]-phenyl}-amide hydrochloride] | 7 | 
2 | CN(C)CCOCCOCCOCCOCCOCC(=O)Nc1ccc(NC(=S)NC(=O)c2ccc(C(C)(C)C)cc2)cc1.Cl [Compound 8, N-{4-[3-(4-tert-Butyl-benzoyl)-thioureido]-phenyl}-2-[2-(2-{2-[2-(2-dimethylamino-ethoxy)-ethoxy]-ethoxy}-ethoxy)-ethoxy]-acetamide hydrochloride] | 9 | 
3 | CC(C)(C)OC(=O)Nc1ccc(NC(=S)NC(=O)c2ccc(C(C)(C)C)cc2)cc1 [Compound 21, {4-[3-(4-tert-Butyl-benzoyl)-thioureido]-phenyl}-carbamic acid tert-butyl ester] | 1 | 
4 | CN(C)CCCC(=O)Nc1ccc(NC(=S)NC(=O)c2ccc(C(C)(C)C)cc2)cc1.Cl [Compound 5, N-{4-[3-(4-tert-Butyl-benzoyl)-thioureido]-phenyl}-4-dimethylamino-butyramide hydrochloride] | 8 | 
5 | CC(C)(C)c1ccc(C(=O)NC(=S)Nc2ccc(NC(=O)CCCCBr)cc2)cc1 [JH140, 5-bromo-pentanoic acid {4-[3-(4-tert-butyl-benzoyl)-thioureido]-phenyl}-amide] |  | irreversibly activate p53
